Assay results published in patent US20050037961A1 (BAYLOR COLLEGE OF MEDICINE, published 2005).
No constants are given. Whether binding was seen depends on the method and setting. In cells and extracts the contact can be indirect. For part of these data: A result given as binding can be weak or reduced; the word gives no strength. Sequences can lack the tags named with a protein.

B1: V5-tag full length CRP2 (1-193) (protein, rat, UniProt Q62908 1-193, looked up, not shown: small tags and cut ends)
chain: MPVWGGGNKCGACGRTVYHAEEVQCDGRTFHRCCFLCMVCRKNLDSTTVAIHDEEIYCKSCYGKKYGPKGYGYGQGAGTLNMDRGERLGIKPESAQPHRPTTNPNTSKFAQKYGGAEKCSRCGDSVYAAEKIIGAGKPWHKNCFRCAKCGKSLESTTLTEKEGEIYCKGCYAKNFGPKGFGYGQGAGALVHAQ
B2: FLAG-tagged rat CRP2 (αMHC-CRP2 transgene) (other, UniProt Q62908 1-193, looked up, not shown: small tags and cut ends)
chain: B1 chain
notes: Expressed in cardiomyocytes of transgenic mice and assayed in nuclear and cytoplasmic heart extracts; also called FLAG-CRP2; FLAG-tagged CRP2

Tests used:
[1] = target: FLAG-tag E12 (pcDNA3.1-FLAG-E12); experiment: co-IP of epitope-tagged proteins from co-transfected CV1 cells, Western blot
HA-tag SRF (pCGN-SRF) = experiment: as above
[2] = target: endogenous cytoplasmic α-actinin (mouse); experiment: co-IP from cytoplasmic extracts of αMHC-CRP2 transgenic mouse hearts, immunoblot

| Binder | binding [1] | binding (HA-tag SRF (pCGN-SRF)) | binding [2] |
| --- | --- | --- | --- |
| B1 | no binding | binds | – |
| B2 | – | – | binds |
